Consider one substance from PMC6915745, “TRIB3 supports breast cancer stemness by suppressing FOXO1 degradation and enhancing SOX2 transcription” (Nature Communications, 2019).

By UniProt entry, the sequences of proteins in these tests, tags left out. Where a name states a change or a piece, a line headed by the entry shows the natural chain unless it says otherwise.
UniProt Q96RU7: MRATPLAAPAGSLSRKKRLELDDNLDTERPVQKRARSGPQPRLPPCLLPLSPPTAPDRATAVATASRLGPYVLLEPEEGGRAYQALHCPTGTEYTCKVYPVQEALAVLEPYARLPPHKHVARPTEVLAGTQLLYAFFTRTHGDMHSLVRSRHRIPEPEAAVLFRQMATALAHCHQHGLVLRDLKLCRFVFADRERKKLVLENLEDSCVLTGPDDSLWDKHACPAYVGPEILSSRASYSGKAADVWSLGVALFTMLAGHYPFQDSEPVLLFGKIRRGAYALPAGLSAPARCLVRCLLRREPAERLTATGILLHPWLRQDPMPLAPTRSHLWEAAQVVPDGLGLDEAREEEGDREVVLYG
UniProt P31749: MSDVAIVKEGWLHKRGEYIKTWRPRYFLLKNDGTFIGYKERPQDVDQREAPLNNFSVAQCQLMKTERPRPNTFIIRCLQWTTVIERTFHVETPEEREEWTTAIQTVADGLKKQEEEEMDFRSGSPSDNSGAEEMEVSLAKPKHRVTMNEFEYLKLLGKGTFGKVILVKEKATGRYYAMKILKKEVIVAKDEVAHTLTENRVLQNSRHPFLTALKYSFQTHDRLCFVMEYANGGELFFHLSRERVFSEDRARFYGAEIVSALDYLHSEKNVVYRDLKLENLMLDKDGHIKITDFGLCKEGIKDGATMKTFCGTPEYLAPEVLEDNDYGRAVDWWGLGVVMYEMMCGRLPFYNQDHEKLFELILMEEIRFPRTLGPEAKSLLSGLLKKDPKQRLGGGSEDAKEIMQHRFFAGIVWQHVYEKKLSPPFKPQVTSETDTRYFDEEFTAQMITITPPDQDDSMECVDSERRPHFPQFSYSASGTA

This test deals with TRIB3-HA (human) (UniProt Q96RU7). Put plainly: co-IP; HEK293T cells co-transfected with AKT1-Myc and TRIB3-HA constructs; cell extracts IP with an anti-HA Ab.

Results are given in words; binding and its absence hold for the method and conditions named. In cells and extracts the contact can be indirect. A result given as binding can be weak or reduced; the word gives no strength.

For the substance “AKT1-Myc △Ae mutant (from UniProt P31749)”, the binding result is reported as “binds weakly”.
